{
  "source": "the supplement of paper PMC12889115",
  "system": "Salmonella enterica serovar Typhimurium SL1344",
  "assay": "bacterial growth OD600 after 18 h with compound and polymyxin B; higher = more bacterial growth (less inhibition)",
  "conditions": "50 µM, Mueller-Hinton broth",
  "note": "This is one part of the list. Values are raw readings; no control value is given beside them.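 In the initial screen, polymyxin B was used at a concentration that permeabilizes Salmonella's outer membrane but not its inner membrane. Maximum growth was set by DMSO wells with or without polymyxin B. Since plates varied, data were ranked per plate, and compounds giving the lowest OD600 advanced as hits.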",
  "data": [
    {"smiles": "COc1ccc2c(c1)SC(c1ccc3c(c1)OCO3)CCN2Cc1ccc2ncccc2c1", "note": "(stereo unspecified)", "values": [
      {"measurement": "bacterial growth OD600", "setting": "polymyxin B 0.75 µg/mL", "result": 0.024}
    ]},
    {"smiles": "COC(=O)CC1C(=O)NCCN1Cc1nc(-c2cc3c(cc2Cl)OCO3)oc1C", "note": "(stereo unspecified)", "values": [
      {"measurement": "bacterial growth OD600", "setting": "polymyxin B 1 µg/mL", "result": 0.851}
    ]},
    {"smiles": "O=C(CCC1CCCN(C(=O)CCN2CCCCO2)C1)N1CCN(c2ccccn2)CC1", "note": "(stereo unspecified)", "values": [
      {"measurement": "bacterial growth OD600", "setting": "polymyxin B 1 µg/mL", "result": 1.03}
    ]},
    {"smiles": "Cc1oc(-c2cc3c(cc2Cl)OCO3)nc1CN(C)Cc1ccc(C(F)(F)F)cc1", "values": [
      {"measurement": "bacterial growth OD600", "setting": "polymyxin B 1 µg/mL", "result": 0.948}
    ]},
    {"smiles": "C=CCOc1cccc(C(=O)N2CCC(Cc3ccc(OC)cc3)(C(=O)OCC)CC2)c1", "values": [
      {"measurement": "bacterial growth OD600", "setting": "polymyxin B 0.75 µg/mL", "result": 0.472}
    ]},
    {"smiles": "O=C(Cn1cncn1)NCc1cccnc1Oc1ccc(F)c(F)c1", "values": [
      {"measurement": "bacterial growth OD600", "setting": "polymyxin B 0.75 µg/mL", "result": 0.849}
    ]},
    {"smiles": "Cc1ccnn1CCC(=O)NC1CC(=O)N(Cc2ccc(F)cc2)C1", "note": "(stereo unspecified)", "values": [
      {"measurement": "bacterial growth OD600", "setting": "polymyxin B 1 µg/mL", "result": 0.908}
    ]},
    {"smiles": "O=C(c1coc(COc2cccc(C(F)(F)F)c2)n1)N1CCOCC1", "values": [
      {"measurement": "bacterial growth OD600", "setting": "polymyxin B 1 µg/mL", "result": 0.895}
    ]},
    {"smiles": "C[C@@H]1CN(C2(C(=O)N3CCC(CCO)CC3)Cc3ccccc3C2)C[C@H](C)O1", "values": [
      {"measurement": "bacterial growth OD600", "setting": "polymyxin B 0.75 µg/mL", "result": 0.658}
    ]},
    {"smiles": "COc1ccc(CNC(=O)CCC2CCCN(Cc3cccc(C(C)=O)c3)C2)c(OC)c1", "note": "(stereo unspecified)", "values": [
      {"measurement": "bacterial growth OD600", "setting": "polymyxin B 1 µg/mL", "result": 0.893}
    ]},
    {"smiles": "CCOCCCNC1CCN(c2ccc(NC(=O)CCCCc3ccccc3)cc2)CC1", "values": [
      {"measurement": "bacterial growth OD600", "setting": "polymyxin B 0.75 µg/mL", "result": 0.735}
    ]},
    {"smiles": "O=C(c1ccc(N2CCCC(CO)C2)nc1)N1CCC(CCn2cccn2)CC1", "note": "(stereo unspecified)", "values": [
      {"measurement": "bacterial growth OD600", "setting": "polymyxin B 0.75 µg/mL", "result": 0.984}
    ]},
    {"smiles": "CCCCc1nc(CN2CCc3onc(-c4cccc(F)c4)c3C2)c[nH]1", "values": [
      {"measurement": "bacterial growth OD600", "setting": "polymyxin B 0.75 µg/mL", "result": 0.558}
    ]},
    {"smiles": "COc1cc(OC)cc(C(=O)NCC2CCCN(C(=O)C3=C(C)OCCO3)C2)c1", "note": "(stereo unspecified)", "values": [
      {"measurement": "bacterial growth OD600", "setting": "polymyxin B 1 µg/mL", "result": 0.807}
    ]},
    {"smiles": "COC(=O)c1ccc(CN2CCCC(C(=O)c3ccc(OC)c(F)c3)C2)cc1", "note": "(stereo unspecified)", "values": [
      {"measurement": "bacterial growth OD600", "setting": "polymyxin B 1 µg/mL", "result": 0.55}
    ]},
    {"smiles": "CN(CCc1nc2cc(F)ccc2[nH]1)C(=O)Cn1nnnc1CN1CCCCCC1", "values": [
      {"measurement": "bacterial growth OD600", "setting": "polymyxin B 0.75 µg/mL", "result": 0.815}
    ]},
    {"smiles": "O=C(NC1CCCCC1)c1cn(C2CC2)cc(C(=O)N2CCOc3ccc(Cl)cc3C2)c1=O", "values": [
      {"measurement": "bacterial growth OD600", "setting": "polymyxin B 0.75 µg/mL", "result": 0.653}
    ]},
    {"smiles": "Cc1n[nH]cc1C(=O)N1CCC(C2CCN(c3ncccn3)CC2)C1", "note": "(stereo unspecified)", "values": [
      {"measurement": "bacterial growth OD600", "setting": "polymyxin B 0.75 µg/mL", "result": 0.948}
    ]},
    {"smiles": "COc1ccc(OC)c(C2CCN(C(=O)c3ccc4oc(C(C)C)nc4c3)C2)c1", "note": "(stereo unspecified)", "values": [
      {"measurement": "bacterial growth OD600", "setting": "polymyxin B 0.75 µg/mL", "result": 0.575}
    ]},
    {"smiles": "CO[C@H]1[C@H](NC(=O)c2ccncc2)c2ccccc2C12CCN(C(=O)c1cc3cc(C)ccc3[nH]1)CC2", "values": [
      {"measurement": "bacterial growth OD600", "setting": "polymyxin B 0.75 µg/mL", "result": 0.016}
    ]},
    {"smiles": "CC(C)CCC1(C2CCN(C(=O)c3cc(C(C)C)on3)CC2)NC(=O)N(Cc2ccccn2)C1=O", "note": "(stereo unspecified)", "values": [
      {"measurement": "bacterial growth OD600", "setting": "polymyxin B 0.75 µg/mL", "result": 0.889}
    ]},
    {"smiles": "Cc1cnccc1CN(C)C(=O)CC(c1ccccc1)c1ccc2c(c1)OCO2", "note": "(stereo unspecified)", "values": [
      {"measurement": "bacterial growth OD600", "setting": "polymyxin B 1 µg/mL", "result": 0.701}
    ]},
    {"smiles": "COc1cccc(CC2(CO)CCCN(Cc3c(OC)cc(OC)cc3OC)C2)c1", "note": "(stereo unspecified)", "values": [
      {"measurement": "bacterial growth OD600", "setting": "polymyxin B 1 µg/mL", "result": 0.989}
    ]},
    {"smiles": "COCCNC(=O)c1ccc(OC2CCN(C(C)COC)CC2)c(Cl)c1", "note": "(stereo unspecified)", "values": [
      {"measurement": "bacterial growth OD600", "setting": "polymyxin B 1 µg/mL", "result": 1.24}
    ]},
    {"smiles": "O=C1CCCN1CCC1CCCCN1Cc1nc(COc2ccccc2)no1", "note": "(stereo unspecified)", "values": [
      {"measurement": "bacterial growth OD600", "setting": "polymyxin B 1 µg/mL", "result": 0.689}
    ]},
    {"smiles": "CN(C)CCC1CN(C(=O)C2CCCCC2)CCO1", "note": "(stereo unspecified)", "values": [
      {"measurement": "bacterial growth OD600", "setting": "polymyxin B 0.75 µg/mL", "result": 0.749}
    ]},
    {"smiles": "CCOC(=O)C1(Cc2ccccc2F)CCCN(C(=O)c2ccc3nccnc3c2)C1", "note": "(stereo unspecified)", "values": [
      {"measurement": "bacterial growth OD600", "setting": "polymyxin B 1 µg/mL", "result": 0.978}
    ]},
    {"smiles": "CCC1CN(CCNC(=O)COc2ccc(C)cc2)Cc2cc(OC)ccc2O1", "note": "(stereo unspecified)", "values": [
      {"measurement": "bacterial growth OD600", "setting": "polymyxin B 0.75 µg/mL", "result": 0.716}
    ]},
    {"smiles": "COc1cc(CC2(CCC(=O)NCCc3nc(-c4ccccc4)cs3)CCC(=O)N2)ccc1F", "note": "(stereo unspecified)", "values": [
      {"measurement": "bacterial growth OD600", "setting": "polymyxin B 0.75 µg/mL", "result": 0.737}
    ]},
    {"smiles": "O=C(NCc1ccco1)c1ccccc1OC1CCN(Cc2ccccn2)CC1", "values": [
      {"measurement": "bacterial growth OD600", "setting": "polymyxin B 1 µg/mL", "result": 0.884}
    ]},
    {"smiles": "COc1cccc(OCC(O)CNC(=O)C2CC(=O)c3sc(NC(=O)c4ccncc4)nc3C2)c1", "note": "(stereo unspecified)", "values": [
      {"measurement": "bacterial growth OD600", "setting": "polymyxin B 0.75 µg/mL", "result": 0.836}
    ]}
  ]
}
